Reference: PubChem BioAssay AID1259308 (NCATS, 2017)
This is an unselected part of about 59,000 deposited reagents. Over the whole deposit, about 1,510 (2.6%) got an active call. 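Calls use total luciferase alone and ignore viability, so some active siRNAs may act by altering cell number.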 Reagents against one gene are numbered here. Reagent sequences are not shown.

Screen: 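Knock-downs that increase output of a recombinant reporter protein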 (primary screen)
System: human HEK293 embryonic kidney cells stably expressing firefly luciferase (HEK-CMV-Luc2-Hygro)
Knock-down reagent: single siRNA against human genes, 0.8 pmol siRNA per well
Time to read-out: 72 h
Measured: 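Reporter luminescence and viable-cell signal on separate replicate plates, given as percent of non-targeting control and median/MAD z-scores, plus per-cell luciferase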
Direction: total luciferase, z-score and total luciferase, % of control: higher = more reporter protein produced; luciferase per cell, z-score: higher = more reporter output per viable cell; viable cells, % of control: higher = more viable cells
Active means: 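An siRNA counts as active if its total luciferase robust z-score exceeds 3; genes with two or more such siRNAs out of three were retested with fresh siRNAs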
Meaning of the calls: active = raised luciferase; inactive = no rise

no.	Gene	reagent no.	total luciferase, z-score	total luciferase, % of control	luciferase per cell, z-score	viable cells, % of control	outcome
1	ACAT1 (acetyl-CoA acetyltransferase 1)	1	1.28	107	1.13	89	inactive
2	ACAT1 (acetyl-CoA acetyltransferase 1)	2	1.04	103	2.01	67.4	inactive
3	ACAT1 (acetyl-CoA acetyltransferase 1)	3	0.768	97.2	0.363	98.7	inactive
4	CYTIP (cytohesin 1 interacting protein)	1	0.598	93.8	0.653	88.2	inactive
5	CYTIP (cytohesin 1 interacting protein)	2	0.0109	82.1	1.47	62.3	inactive
6	CYTIP (cytohesin 1 interacting protein)	3	-0.66	68.8	-0.298	83.1	inactive
7	SF3B2 (splicing factor 3b subunit 2)	1	-0.628	69.4	1.66	50	inactive
8	SF3B2 (splicing factor 3b subunit 2)	2	3.05	143	5.23	40.2	active
9	SF3B2 (splicing factor 3b subunit 2)	3	2.75	137	4.5	46.7	inactive
10	DEPDC5 (DEP domain containing 5, GATOR1 subcomplex subunit)	1	0.307	88	0.302	90.8	inactive
11	DEPDC5 (DEP domain containing 5, GATOR1 subcomplex subunit)	2	-0.57	70.5	0.582	67.6	inactive
12	DEPDC5 (DEP domain containing 5, GATOR1 subcomplex subunit)	3	-1.11	59.9	-0.796	82.5	inactive
13	PTGDS (prostaglandin D2 synthase)	1	-1.17	58.7	-1.14	88.5	inactive
14	PTGDS (prostaglandin D2 synthase)	2	-1	61.9	-1.3	97.5	inactive
15	PTGDS (prostaglandin D2 synthase)	3	-0.298	76	-0.41	94.5	inactive
16	RBM41 (RNA binding motif protein 41)	1	-0.907	63.8	-1.31	101	inactive
17	RBM41 (RNA binding motif protein 41)	2	-0.658	68.8	-0.465	86.9	inactive
18	RBM41 (RNA binding motif protein 41)	3	0.338	88.6	-0.139	103	inactive
19	GPKOW (G-patch domain and KOW motifs)	1	-0.698	68	-0.752	92.6	inactive
20	GPKOW (G-patch domain and KOW motifs)	2	1.06	103	1.57	76.1	inactive
21	GPKOW (G-patch domain and KOW motifs)	3	-0.431	73.3	-0.675	97.9	inactive
22	MAOA (monoamine oxidase A)	1	-0.281	76.3	0.268	79.4	inactive
23	MAOA (monoamine oxidase A)	2	1.78	117	1.64	85.2	inactive
24	MAOA (monoamine oxidase A)	3	0.0602	83.1	-0.456	105	inactive

Continued; the last 6 above are carried over.
no.	Gene	reagent no.	total luciferase, z-score	total luciferase, % of control	luciferase per cell, z-score	viable cells, % of control	outcome
19	GPKOW (G-patch domain and KOW motifs)	1	-0.698	68	-0.752	92.6	inactive
20	GPKOW (G-patch domain and KOW motifs)	2	1.06	103	1.57	76.1	inactive
21	GPKOW (G-patch domain and KOW motifs)	3	-0.431	73.3	-0.675	97.9	inactive
22	MAOA (monoamine oxidase A)	1	-0.281	76.3	0.268	79.4	inactive
23	MAOA (monoamine oxidase A)	2	1.78	117	1.64	85.2	inactive
24	MAOA (monoamine oxidase A)	3	0.0602	83.1	-0.456	105	inactive
25	CCDC197 (coiled-coil domain containing 197)	1	1.59	113	0.779	103	inactive
26	CCDC197 (coiled-coil domain containing 197)	2	-0.301	75.9	-0.566	98.4	inactive
27	CCDC197 (coiled-coil domain containing 197)	3	-0.518	71.6	-0.285	86.2	inactive
28	ENTPD7 (ectonucleoside triphosphate diphosphohydrolase 7)	1	0.542	92.7	-0.00565	104	inactive
29	ENTPD7 (ectonucleoside triphosphate diphosphohydrolase 7)	2	-0.338	75.2	-0.912	107	inactive
30	ENTPD7 (ectonucleoside triphosphate diphosphohydrolase 7)	3	-0.581	70.3	-0.947	101	inactive
31	YWHAEP5	1	1.51	112	1.21	90.9	inactive
32	YWHAEP5	2	0.11	84.1	0.453	83.4	inactive
33	YWHAEP5	3	-1.95	43.1	-1.64	74.3	inactive
34	ATP1B3 (ATPase Na+/K+ transporting subunit beta 3)	1	-0.767	66.6	-0.448	83.8	inactive
35	ATP1B3 (ATPase Na+/K+ transporting subunit beta 3)	2	0.79	97.6	0.172	104	inactive
36	ATP1B3 (ATPase Na+/K+ transporting subunit beta 3)	3	-1.78	46.4	-1.64	79.8	inactive
37	IGSF9B (immunoglobulin superfamily member 9B)	1	0.439	90.6	0.8	82	inactive
38	IGSF9B (immunoglobulin superfamily member 9B)	2	-0.136	79.2	-0.782	109	inactive
39	IGSF9B (immunoglobulin superfamily member 9B)	3	-0.245	77	0.0918	84	inactive
40	IGSF9B (immunoglobulin superfamily member 9B)	4	2.36	129	2.37	77.1	inactive
41	IGSF9B (immunoglobulin superfamily member 9B)	5	-1.86	44.9	-1.33	71.2	inactive
42	IGSF9B (immunoglobulin superfamily member 9B)	6	0.113	84.1	-0.702	113	inactive
43	KRTAP9-1 (keratin associated protein 9-1)	1	-1.58	50.6	-0.215	59.8	inactive
44	KRTAP9-1 (keratin associated protein 9-1)	2	-0.864	64.7	-0.594	84.5	inactive
45	KRTAP9-1 (keratin associated protein 9-1)	3	0.754	96.9	0.84	86.8	inactive
46	LINC02714 (long independently transcribed non-coding RNA 2714)	1	-0.76	66.8	0.267	69.5	inactive
47	LINC02714 (long independently transcribed non-coding RNA 2714)	2	0.127	84.4	-0.0939	96.7	inactive
48	LINC02714 (long independently transcribed non-coding RNA 2714)	3	0.83	98.4	0.68	91.9	inactive
49	NME4 (NME/NM23 nucleoside diphosphate kinase 4)	1	0.346	88.8	0.725	82	inactive
50	NME4 (NME/NM23 nucleoside diphosphate kinase 4)	2	3.21	146	3.05	72.8	active
51	NME4 (NME/NM23 nucleoside diphosphate kinase 4)	3	-2.41	34	-1.01	49.6	inactive
52	SLC25A11	1	1.51	112	1.26	89.7	inactive
53	SLC25A11	2	1.06	103	0.175	110	inactive
54	SLC25A11	3	0.277	87.4	-0.193	103	inactive
55	YES1 (YES proto-oncogene 1, Src family tyrosine kinase)	1	1.56	113	1.18	92.4	inactive
56	YES1 (YES proto-oncogene 1, Src family tyrosine kinase)	2	-1.41	53.9	-0.969	77.7	inactive
57	YES1 (YES proto-oncogene 1, Src family tyrosine kinase)	3	-0.562	70.7	-0.896	100	inactive
